This note sets out measurements from patent US7943141B2, “Activated polyoxazolines and compositions comprising the same” (Serina Therapeutics, Inc., priority 2007, dated 2011).

A short description of this data set: Degree of protein modification by TNBS assay. The conditions noted are these: conjugated amino groups as percentage of total.

B1: POZ/RNAse: ribonuclease A modified with M-PEOZ-O—CH2—CO2—NHS (6 kDa) (conjugate, UniProt P61823 27-150, looked up)
Ribonuclease pancreatic: KETAAAKFERQHMDSSTSAASSSNYCNQMMKSRNLTKDRCKPVNTFVHESLADVQAVCSQKNVACKNGQTNCYQSYSTMSITDCRETGSSKYPNCAYKTTQANKHIIVACEGNPYVPVHFDASV
modifications: M-PEOZ 6 kDa conjugate
As to B1, the “% modification” value reads like this: (NH2:polymer molar ratio 1:1) 23%; (NH2:polymer molar ratio 2:1) 36%.

B2: PEG/RNAse: ribonuclease A modified with PEG-O—CH2—CO2—NHS (5.5 kDa) (conjugate, UniProt P61823 27-150, looked up)
Ribonuclease pancreatic: KETAAAKFERQHMDSSTSAASSSNYCNQMMKSRNLTKDRCKPVNTFVHESLADVQAVCSQKNVACKNGQTNCYQSYSTMSITDCRETGSSKYPNCAYKTTQANKHIIVACEGNPYVPVHFDASV
modifications: PEG 5.5 kDa conjugate
Take B2: the “% modification” value is 60% (NH2:polymer molar ratio 1:1) and 80% (NH2:polymer molar ratio 2:1).
